PubChem BioAssay AID1259254 | NCATS, 2017
The whole screen tested about 59,000 reagents; shown is a random part of them. In the full data, about 1,550 (2.6%) got an active call. 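G2 share is only a proxy for re-replication; each gene was hit by three separate siRNAs, and active genes were retested.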 Reagents against one gene are numbered here. Not all columns of the deposit are shown. No sequences are given here. Not stated in the record: the amount of reagent.

- Test: 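Gene knock-downs that lead to re-replication, shown by excess G2 DNA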 (primary screen)
- Cells: human HCT116 colorectal cancer cells
- Knock-down reagent: single siRNA against human genes
- Timing: 3 days
- Detection: 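Nuclei stained with Hoechst and imaged; cell-cycle phase assigned by DNA content; G2 share scaled per plate, non-targeting siRNA 0%, GMNN siRNA 100%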
- Reading the numbers: G2 robust z-score: higher = more G2 cells, more excess DNA replication
- Rule for the call: 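An siRNA counts as active if its G2 robust z-score lies at least 5 MADs above the screen median; here such calls match roughly 38% of GMNN control or more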

Silencing of SYCP2 #1 gave: G2 robust z-score -0.788; inactive. After knock-down of SYCP2 #2 the results were G2 robust z-score 0.406; inactive. For SYCP2 #3, the entry reads G2 robust z-score 0.171; inactive. After knock-down of PLEKHG7 #1, the screen gave G2 robust z-score -1; inactive. After knock-down of PLEKHG7 #2, the record shows G2 robust z-score -0.387; inactive. After knock-down of PLEKHG7 #3 the results were G2 robust z-score 2.45; inactive.

Silencing of PLEKHG7 #4 gave: G2 robust z-score 0.092; inactive. Knock-down of PLEKHG7 #5 gave: G2 robust z-score -0.904; inactive. PLEKHG7 #6 scored G2 robust z-score -0.451; inactive.

Part of the list above in another layout:
target gene	siRNA no.	G2 robust z-score	Outcome
SYCP2	2	0.406	inactive
SYCP2	3	0.171	inactive

More entries follow.
Against BOLA3 #1, the values are G2 robust z-score -0.421; inactive. BOLA3 #2 gave G2 robust z-score -0.326; inactive. Knock-down of BOLA3 #3 came out at: G2 robust z-score -0.933; inactive. AKAP9 #1 showed G2 robust z-score 0.031; inactive. Silencing of AKAP9 #2 resulted in: G2 robust z-score -0.821; inactive. Silencing of AKAP9 #3 resulted in: G2 robust z-score -0.426; inactive.

With knock-down of RNF141 #1, the screen gave G2 robust z-score -1.17; inactive. RNF141 #2 gave G2 robust z-score -0.434; inactive. After knock-down of RNF141 #3, the record shows G2 robust z-score 0.0154; inactive.
